Results as given in US20110318738A1, “IDENTIFICATION AND REGULATION OF A NOVEL DNA DEMETHYLASE SYSTEM” (University of Utah Research Foundation, priority 2008, published 2011).
These are yes or no findings as the source states them, for the method shown. Binding seen in cells or lysates may run through a third protein. Some entries that bind do so weakly or less than the wild type.

Chains of the proteins cited; added tags and fusions are not shown.
UniProt Q04726: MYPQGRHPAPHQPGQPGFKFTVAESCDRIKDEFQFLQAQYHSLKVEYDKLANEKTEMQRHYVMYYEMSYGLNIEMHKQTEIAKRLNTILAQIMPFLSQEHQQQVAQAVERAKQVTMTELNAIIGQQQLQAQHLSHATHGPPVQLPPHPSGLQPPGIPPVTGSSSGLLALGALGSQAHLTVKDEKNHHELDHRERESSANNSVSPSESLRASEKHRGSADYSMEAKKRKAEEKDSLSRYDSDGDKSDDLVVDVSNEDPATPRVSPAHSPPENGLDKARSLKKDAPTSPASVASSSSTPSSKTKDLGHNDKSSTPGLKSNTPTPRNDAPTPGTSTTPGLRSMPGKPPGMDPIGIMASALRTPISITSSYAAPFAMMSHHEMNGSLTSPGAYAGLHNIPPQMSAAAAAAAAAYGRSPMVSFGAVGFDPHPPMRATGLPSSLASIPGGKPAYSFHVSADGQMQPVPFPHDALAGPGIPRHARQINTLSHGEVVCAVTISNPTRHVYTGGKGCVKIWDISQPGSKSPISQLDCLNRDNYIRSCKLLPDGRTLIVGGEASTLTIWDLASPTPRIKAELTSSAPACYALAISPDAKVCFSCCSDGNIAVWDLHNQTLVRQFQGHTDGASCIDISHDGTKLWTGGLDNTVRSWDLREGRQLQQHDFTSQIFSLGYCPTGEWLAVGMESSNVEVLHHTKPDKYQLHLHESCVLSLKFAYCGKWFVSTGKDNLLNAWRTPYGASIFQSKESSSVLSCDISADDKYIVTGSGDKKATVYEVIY
UniProt Q9UJU2: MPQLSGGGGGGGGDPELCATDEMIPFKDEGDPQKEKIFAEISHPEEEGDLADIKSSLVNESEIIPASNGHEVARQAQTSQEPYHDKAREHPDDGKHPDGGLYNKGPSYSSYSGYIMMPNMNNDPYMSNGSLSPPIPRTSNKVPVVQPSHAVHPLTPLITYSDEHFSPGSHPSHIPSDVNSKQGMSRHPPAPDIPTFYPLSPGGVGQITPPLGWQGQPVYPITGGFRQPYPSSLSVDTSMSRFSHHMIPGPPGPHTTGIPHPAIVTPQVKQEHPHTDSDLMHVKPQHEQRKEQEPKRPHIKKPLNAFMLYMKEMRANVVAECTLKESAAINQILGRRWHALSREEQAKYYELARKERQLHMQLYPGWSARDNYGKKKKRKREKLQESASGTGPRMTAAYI

Target: Human TLE3 (a homolog of Groucho2) (human) (UniProt Q04726)
Assay: co-immunoprecipitation of tagged proteins

- binding: binds
Substance: Human LEF1 (from UniProt Q9UJU2 1-399)
